Laboratory results taken from article PMC12224947.
These are yes or no findings as the source states them, for the method shown. Binding seen in cells or lysates may run through a third protein. Some results given as binding are weak or reduced against the parent protein; the word gives no strength. For some assays here: Tags and fused reporters may be left off the sequences shown.

The chains behind the UniProt entries cited, without tags or fusion partners.
UniProt Q9Y4X5: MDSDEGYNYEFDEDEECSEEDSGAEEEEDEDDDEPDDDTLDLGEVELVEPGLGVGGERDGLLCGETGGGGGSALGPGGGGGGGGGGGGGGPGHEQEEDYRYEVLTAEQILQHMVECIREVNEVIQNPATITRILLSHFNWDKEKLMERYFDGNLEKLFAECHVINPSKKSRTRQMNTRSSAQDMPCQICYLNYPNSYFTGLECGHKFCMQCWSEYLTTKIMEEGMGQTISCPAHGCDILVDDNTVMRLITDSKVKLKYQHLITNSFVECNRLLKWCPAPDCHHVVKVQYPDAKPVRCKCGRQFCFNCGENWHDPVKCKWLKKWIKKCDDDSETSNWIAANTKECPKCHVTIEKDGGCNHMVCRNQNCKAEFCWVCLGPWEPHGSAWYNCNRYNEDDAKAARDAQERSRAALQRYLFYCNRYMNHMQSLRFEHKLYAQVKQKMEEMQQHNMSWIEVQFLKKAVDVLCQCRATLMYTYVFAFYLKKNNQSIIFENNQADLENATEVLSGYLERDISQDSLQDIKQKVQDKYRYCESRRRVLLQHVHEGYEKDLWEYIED

How the values were obtained:
[1] = molecular target: T1, Prohibitin 1 (PHB1) (human (endogenous in DLD-1, HCT116 and SW480)) (UniProt P35232); assay: co-IP; endogenous proteins, lysates of DLD-1 and HCT116 cells, IgG as control, Western blot
T1 sequence: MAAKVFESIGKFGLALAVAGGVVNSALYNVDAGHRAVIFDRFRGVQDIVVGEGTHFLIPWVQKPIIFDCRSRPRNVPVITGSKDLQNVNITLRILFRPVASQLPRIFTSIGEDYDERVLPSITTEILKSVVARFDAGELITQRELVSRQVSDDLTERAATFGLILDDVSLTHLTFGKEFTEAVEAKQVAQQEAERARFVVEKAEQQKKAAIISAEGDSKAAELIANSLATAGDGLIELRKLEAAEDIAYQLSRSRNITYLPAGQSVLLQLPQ

[2] = molecular target: T2, Myc-PHB1 (UniProt P35232); assay: co-IP; HEK293T cells transfected for 24 h with Flag-ARIH1 (wild type or deletion mutants) and Myc-PHB1 (wild type or deletion mutants); anti-Flag or anti-Myc, Western blot
T2 sequence: T1 sequence

binding [1]	binding [2]	Substance
binds	–	ARIH1 (from UniProt Q9Y4X5 1-557)
–	binds	Flag-ARIH1 (from UniProt Q9Y4X5 1-557)
